Source: patent publication US20170368132A1 (published 2017)
Results are given in words; binding and its absence hold for the method and conditions named. For some of these results: Binding can be weak; no strength is given.

How the values were obtained:
Experiment in all cases: yeast two-hybrid, growth on -ADE -HIS
[1] = target: C. albicans Rad51 (C. albicans)
[2] = target: D. rerio Rad51 (D. rerio)
[3] = target: K. lactis Rad51 (K. lactis)
[4] = target: K. pastoris Rad51 (K. pastoris)

B1: compound 5 peptide sequence (SEQ ID NO.:5) (peptide)
peptide: KRRRRRRRKRLGVRLRVSRML
For B1, the binding [1] was “binds”, the binding [2] was “binds” and the binding [3] was “no binding”. For the same binder, the binding [4] was “binds”.
